Measurements as given in doi:10.1101/633560.
Results are given in words; binding and its absence hold for the method and conditions named. Binding seen in cells or lysates may run through a third protein. Some binding calls cover weakened binding; strength is not graded here. Sequences can lack the tags named with a protein.

By UniProt entry, the sequences of proteins in these tests, tags left out.
UniProt Q00613: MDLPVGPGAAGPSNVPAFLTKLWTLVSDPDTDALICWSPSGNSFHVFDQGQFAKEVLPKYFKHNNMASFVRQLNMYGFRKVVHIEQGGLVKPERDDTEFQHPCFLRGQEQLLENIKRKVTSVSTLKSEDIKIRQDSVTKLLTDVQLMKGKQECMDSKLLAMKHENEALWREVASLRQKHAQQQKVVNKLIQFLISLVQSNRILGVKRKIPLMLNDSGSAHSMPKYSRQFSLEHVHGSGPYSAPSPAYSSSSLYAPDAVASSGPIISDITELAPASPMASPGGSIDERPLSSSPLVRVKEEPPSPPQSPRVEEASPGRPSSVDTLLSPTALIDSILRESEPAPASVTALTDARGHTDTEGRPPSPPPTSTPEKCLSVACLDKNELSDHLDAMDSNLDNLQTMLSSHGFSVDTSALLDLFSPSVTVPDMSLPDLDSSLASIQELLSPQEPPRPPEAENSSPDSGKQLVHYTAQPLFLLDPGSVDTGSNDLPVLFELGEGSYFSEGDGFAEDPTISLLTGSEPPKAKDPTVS

Experiments:
DYRK2-GFP, wild type = biological target: T1, DYRK2-GFP, wild type (UniProt Q92630); assay: co-IP
T1 sequence: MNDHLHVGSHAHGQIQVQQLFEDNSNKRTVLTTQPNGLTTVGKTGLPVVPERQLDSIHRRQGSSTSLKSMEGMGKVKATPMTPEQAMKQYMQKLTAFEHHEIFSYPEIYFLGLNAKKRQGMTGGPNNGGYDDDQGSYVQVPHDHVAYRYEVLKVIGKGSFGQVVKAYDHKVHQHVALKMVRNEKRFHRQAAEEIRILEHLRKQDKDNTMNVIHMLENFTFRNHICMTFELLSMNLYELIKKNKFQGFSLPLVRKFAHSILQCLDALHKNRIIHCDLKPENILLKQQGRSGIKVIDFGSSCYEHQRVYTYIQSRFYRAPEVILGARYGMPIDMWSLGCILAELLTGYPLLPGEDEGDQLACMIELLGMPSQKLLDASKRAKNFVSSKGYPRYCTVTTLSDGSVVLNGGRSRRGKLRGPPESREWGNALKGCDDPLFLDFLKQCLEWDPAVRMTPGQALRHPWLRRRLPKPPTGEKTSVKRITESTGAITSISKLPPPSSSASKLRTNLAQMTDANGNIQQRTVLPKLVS

[1] = biological target: T2, HA-tagged DYRK2 (dual-specificity tyrosine-regulated kinase 2) (UniProt Q92630); assay: co-IP
T2 sequence: T1 sequence

| binding (DYRK2-GFP, wild type) | binding [1] | Substance |
| --- | --- | --- |
| binds weakly | – | Flag-tagged HSF1 (from UniProt Q00613 1-529) |
| – | binds weakly | HSF1-GFP (heat shock factor 1) (from UniProt Q00613 1-529) |
